Test results: PubChem BioAssay AID493014 (National Center for Advancing Translational Sciences (NCATS), 2011)
The list shows a part of the results. These are further read-outs of the screen, such as a control signal, another cell line or another target. No call is given for them. Compounds called inactive in the main read-out are mostly missing here. The note in brackets gives the kind of curve behind each potency; many fits are weak.

Experiment: qHTS Assay to Find Inhibitors of Chronic Active B-Cell Receptor Signaling
Conditions: ABC-DLBCL IkBa-CBG/CBR reporter, luminescence ratio (green luciferase fused to IkBa over red control in TMD8 lymphoma cells), 4 h
Method in brief: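 Concentration-response series (up to 46 uM) were applied to TMD8 dual-reporter cells for 4 h at 37C with doxycycline. Green/red ratio, after filter-overlap correction, defined %Activity; red signal alone was normalised to basal cells and zero luminescence.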

[1] = measured here: CBR red luminescence, cell number
[2] = measured here: IkBa-CBG green luminescence

COC(=O)c1ccc(C)c(-n2c(=O)n(Cc3ccccc3)c(=O)c3[nH]cnc32)c1
AC50 [1]: 2.51 µM [rising, partial curve, poor fit] | AC50 [2]: 3.55 µM [falling, partial curve, poor fit]

Cn1c2ccccc2c2ncn(CCC3=CCCCC3)c(=O)c21
AC50 [1]: 35.5 µM [falling, single point]

COCCCNC(=O)c1cc2c(=O)n(C)c3ccccc3c2n1C
AC50 [1]: 10.3 µM [rising, partial curve, poor fit]

NC(=O)C1CCN(CC(O)COCc2ccccc2Cl)CC1 (stereo not given)
AC50 [1]: 10 µM [rising, partial curve, poor fit]

CCOc1ccc(N=Nc2ccc(O)c3ncccc23)cc1
AC50 [1]: 35.5 µM [rising, single point]

Cc1cc(C)cc(NC(=O)CSc2nc3nc(C)cc(C)c3c(=O)[nH]2)c1
AC50 [1]: 20.6 µM [falling, single point]

O=C(COC(=O)c1ccc(S(=O)(=O)N2CCc3ccccc3C2)cc1)NC(=O)NCc1ccco1
AC50 [1]: 29.1 µM [rising, single point]

O=C(c1cccs1)c1coc2ccc(O)cc12
AC50 [1]: 29.1 µM [falling, single point]

Cc1cc(-c2nnc(SCC(=O)Nc3nccs3)o2)no1
AC50 [1]: 3.16 µM [rising, full curve, poor fit]

CCN(CCCNC(=O)CCCCn1c(=O)[nH]c2ccccc2c1=O)c1ccccc1
AC50 [1]: 6.31 µM [falling, single point]

Cc1cc(C)c[n+](-c2nc3ccccc3nc2[N-]S(=O)(=O)c2ccc(Cl)cc2)c1
AC50 [1]: 18.4 µM [falling, single point]

Cc1cc(C)c(NC(=O)CSc2nc3ccc(N4C(=O)c5ccccc5C4=O)cc3s2)c(C)c1
AC50 [1]: 1 µM [rising, full curve]

O=C1CC2C(CC(OC(=O)c3ccc(-c4ccccc4)cc3)C2CO)O1 (stereo not given)
AC50 [1]: 2.91 µM [rising, full curve, poor fit]

CCn1c2ccccc2c2cc(NC(=O)COC(=O)C3CCC(=O)N3)ccc21 (stereo not given)
AC50 [1]: 3.16 µM [rising, single point]

c1cncc(-c2nc3cc4ccccc4cc3[nH]2)c1
AC50 [1]: 35.5 µM [falling, partial curve, poor fit]

COc1cc(C#Cc2c(-c3cncn3C)n(C)c3ccc(-c4ccc(OC)nc4)cc23)cc(OC)c1
AC50 [1]: 5.17 µM [falling, partial curve, poor fit]

COc1ccc(-n2nc3c(N4CCC(C(=O)NCc5cccc(C)c5)CC4)nnc(C)c3c2C)cc1
AC50 [1]: 17.8 µM [falling, single point]

O=S(=O)(c1cccs1)N1CCN(c2ccc(Cl)cc2)CC1
AC50 [1]: 4.47 µM [rising, full curve, poor fit]

O=C(Nc1ccc(Cl)cc1)N1CCc2[nH]c3ccccc3c2C1
AC50 [1]: 5.62 µM [falling, full curve, poor fit]

Cc1ccc(/C=C2\SC(=S)N(CCC(=O)NNS(=O)(=O)c3ccccc3)C2=O)cc1
AC50 [1]: 3.55 µM [falling, partial curve, poor fit]

COc1cc2ccccc2cc1C(=O)Nc1cc(C)ccn1
AC50 [1]: 14.1 µM [falling, single point]

Cc1ccc2oc(=O)c(/C=C(\O)c3cccs3)nc2c1
AC50 [1]: 6.31 µM [rising, single point]

CS(=O)(=O)c1ccc2nc(NC(=O)c3ccc(NS(=O)(=O)c4cccc([N+](=O)[O-])c4)cc3)sc2c1
AC50 [1]: 12.6 µM [falling, partial curve, poor fit]

O=C(Nc1cccc(S(=O)(=O)N2CCCC2)c1)c1cncc(Br)c1
AC50 [1]: 29.1 µM [falling, single point]

COc1cc(OC)c2c(-c3cccc(-c4ccc(OC)c(OC)c4)c3)cc(=O)oc2c1
AC50 [1]: 0.82 µM [rising, full curve, poor fit]

Cc1nnc(NC(=O)Cn2c(=O)sc3ccccc32)s1
AC50 [1]: 18.4 µM [rising, partial curve]

Cc1ccc(OCCCc2c(C)n[nH]c2C)cc1
AC50 [1]: 35.5 µM [rising, partial curve, poor fit]

CS(=O)(=O)c1ccc(Cl)c(NC(=O)c2cccc(N3C(=O)CCC3=O)c2)c1
AC50 [1]: 20.6 µM [rising, single point]

COCCNC(=O)COc1ccc(C)cc1C
AC50 [1]: 0.651 µM [rising, full curve]

Cc1nnc(N/N=C\c2ccc(-c3cccc(C(=O)O)c3)o2)n1N
AC50 [1]: 11.2 µM [falling, partial curve]

Cc1nc(-c2cccc(NC(=O)c3ccc(Br)o3)c2)cs1
AC50 [1]: 3.16 µM [falling, partial curve, poor fit]

COc1ccc(C(=O)NNC(=O)Cc2nc3ccccc3n2C)cc1
AC50 [1]: 4.11 µM [rising, single point]

CCCCCn1c(C)c2c(OCC)cccc(=O)c2c1C
AC50 [1]: 3.98 µM [rising, partial curve, poor fit]

COc1ccc(C(=O)Nc2ccc(S(=O)(=O)NC(C)C)cc2)cc1
AC50 [1]: 29.1 µM [falling, single point]

Cc1ccc(NC(=O)c2sc3nc(N)c(C#N)cc3c2N)cc1
AC50 [1]: 9.2 µM [falling, partial curve, poor fit]

Brc1ccc(-c2cn3ccccc3n2)s1
AC50 [1]: 0.184 µM [rising, partial curve, poor fit]

CC1=CC(=O)C=C(C)C1=NOC(=O)/C=C\c1ccccc1
AC50 [1]: 29.1 µM [falling, single point]

O=C(Nc1ncc2c(n1)-c1ccccc1OC2)c1cccc([N+](=O)[O-])c1
AC50 [1]: 8.91 µM [falling, partial curve] | AC50 [2]: 25.1 µM [rising, partial curve, poor fit]

CC(C)(C)OC(=O)N1CCN(C(=O)c2ncn(Cc3ccccc3)c2C(=O)N2CCN(C(=O)OC(C)(C)C)CC2)CC1
AC50 [1]: 2.91 µM [rising, full curve, poor fit]

Cc1cc(N2CCN(c3ccccn3)CC2)n2cc(-c3ccccc3)nc2n1
AC50 [1]: 9.2 µM [falling, single point]

O=C(CSc1ncccc1C(=O)O)c1ccccc1F
AC50 [1]: 7.94 µM [rising, partial curve]

COc1ccc(C2=Nn3c(nnc3-c3ccco3)SC2)cc1
AC50 [1]: 29.1 µM [falling, single point]

CCOC(=O)N1CCC(=NNC(=O)COc2ccc(OC)cc2)CC1
AC50 [1]: 14.6 µM [falling, partial curve, poor fit]

O=C(NCCc1ccncc1)Nc1ccccc1Cl
AC50 [1]: 3.26 µM [falling, full curve]

CC(C)(C)c1cc(=O)[nH]c(SCc2ccccc2Cl)n1
AC50 [1]: 35.5 µM [falling, single point]

COc1ccc(NC(=O)N2CCN(c3nc(-c4cccc(OC)c4)cs3)CC2)cc1
AC50 [1]: 29.1 µM [falling, single point]

COc1ccc(CCNC(=O)Nc2cc(F)c(F)cc2Cl)cc1OC
AC50 [1]: 3.55 µM [rising, partial curve, poor fit]

CC(=O)Nc1ccc(NC(=O)C(C)OC(=O)C2CC(=O)N(CCc3ccccc3)C2)cc1 (stereo not given)
AC50 [1]: 20.6 µM [rising, partial curve, poor fit]

O=C(Nc1cc(Cl)ccc1O)C1CCCO1 (stereo not given)
AC50 [1]: 12.6 µM [rising, partial curve, poor fit]

O=C(Nc1cccc(O)c1)c1noc2c1CCCCC2
AC50 [1]: 11.6 µM [falling, partial curve, poor fit]

Cc1nc2cc(NC(=O)c3ccc(Br)s3)ccc2s1
AC50 [1]: 12.6 µM [falling, partial curve]

Cc1ccc(C(=O)c2sc(Nc3ccccc3)c(C#N)c2N)cc1
AC50 [1]: 2.31 µM [rising, partial curve]

CC[C@@H]1C(c2ccccc2)=NN(c2ccccc2)[C@H]1C(=O)N1CCOC1=O
AC50 [1]: 1.84 µM [falling, full curve, poor fit]

COC(=O)c1c(NC(=O)c2ccccc2OC)sc(C(=O)N2CCOCC2)c1C
AC50 [1]: 11.2 µM [falling, partial curve]

Cc1c(NS(=O)(=O)c2cc(C(=O)NCCN(C)C)ccc2Cl)c(=O)n(-c2ccccc2)n1C
AC50 [1]: 3.98 µM [rising, partial curve, poor fit]

CCOc1cc(/C=C(/C#N)c2nc3ccccc3[nH]2)ccc1OCc1ccc(C(=O)O)o1
AC50 [1]: 0.447 µM [falling, full curve, poor fit]

Clc1ccc2c(N3CCOCC3)ccnc2c1
AC50 [1]: 35.5 µM [rising, single point]

C/C=C\C=C/C(=O)Nc1cccc(C2=NOC3(C2)C[C@@H](C(N)=O)N(C(=O)/C=C/CC)C3)c1 (stereo not given in full)
AC50 [1]: 7.08 µM [falling, partial curve, poor fit]

O=C(OCc1c(-c2ccccc2)ncc2ccccc12)N1CCOCC1
AC50 [1]: 0.082 µM [rising, full curve, poor fit]

COc1ccc2nc(NC(=O)c3cnccn3)sc2c1
AC50 [1]: 8.2 µM [falling, partial curve]

COc1ccc(N(CC(=O)Nc2ccc3c(c2)OCCO3)S(=O)(=O)c2c(C)nn(C)c2C)cc1
AC50 [1]: 1.26 µM [falling, full curve, poor fit]

COc1cccc(NC(=O)CSc2nc3c(c(=O)n2C)SC(C)C3)c1 (stereo not given)
AC50 [1]: 13 µM [falling, partial curve, poor fit]

CCc1nc(N)c(C#N)c(-c2ccc(F)cc2)c1C
AC50 [1]: 23.1 µM [falling, single point]
